The supplement of paper PMC10849652
This is one part of the list.

Amino acid sequences for entries named in this document (tags omitted). A change or cut given only in a name is not applied to a line headed by its entry.
UniProt Q9NRR8: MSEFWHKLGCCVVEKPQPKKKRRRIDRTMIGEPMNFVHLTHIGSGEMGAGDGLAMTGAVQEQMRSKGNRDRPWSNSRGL
UniProt P11802: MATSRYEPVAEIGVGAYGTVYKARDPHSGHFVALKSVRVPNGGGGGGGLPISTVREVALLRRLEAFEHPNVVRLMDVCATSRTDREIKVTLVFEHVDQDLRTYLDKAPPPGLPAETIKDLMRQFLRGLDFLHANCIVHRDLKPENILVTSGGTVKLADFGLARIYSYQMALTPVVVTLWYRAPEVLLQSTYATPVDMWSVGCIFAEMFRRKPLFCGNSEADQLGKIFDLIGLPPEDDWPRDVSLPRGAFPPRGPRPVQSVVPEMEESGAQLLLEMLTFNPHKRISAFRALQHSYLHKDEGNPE
UniProt P08603, whole entry, looked up: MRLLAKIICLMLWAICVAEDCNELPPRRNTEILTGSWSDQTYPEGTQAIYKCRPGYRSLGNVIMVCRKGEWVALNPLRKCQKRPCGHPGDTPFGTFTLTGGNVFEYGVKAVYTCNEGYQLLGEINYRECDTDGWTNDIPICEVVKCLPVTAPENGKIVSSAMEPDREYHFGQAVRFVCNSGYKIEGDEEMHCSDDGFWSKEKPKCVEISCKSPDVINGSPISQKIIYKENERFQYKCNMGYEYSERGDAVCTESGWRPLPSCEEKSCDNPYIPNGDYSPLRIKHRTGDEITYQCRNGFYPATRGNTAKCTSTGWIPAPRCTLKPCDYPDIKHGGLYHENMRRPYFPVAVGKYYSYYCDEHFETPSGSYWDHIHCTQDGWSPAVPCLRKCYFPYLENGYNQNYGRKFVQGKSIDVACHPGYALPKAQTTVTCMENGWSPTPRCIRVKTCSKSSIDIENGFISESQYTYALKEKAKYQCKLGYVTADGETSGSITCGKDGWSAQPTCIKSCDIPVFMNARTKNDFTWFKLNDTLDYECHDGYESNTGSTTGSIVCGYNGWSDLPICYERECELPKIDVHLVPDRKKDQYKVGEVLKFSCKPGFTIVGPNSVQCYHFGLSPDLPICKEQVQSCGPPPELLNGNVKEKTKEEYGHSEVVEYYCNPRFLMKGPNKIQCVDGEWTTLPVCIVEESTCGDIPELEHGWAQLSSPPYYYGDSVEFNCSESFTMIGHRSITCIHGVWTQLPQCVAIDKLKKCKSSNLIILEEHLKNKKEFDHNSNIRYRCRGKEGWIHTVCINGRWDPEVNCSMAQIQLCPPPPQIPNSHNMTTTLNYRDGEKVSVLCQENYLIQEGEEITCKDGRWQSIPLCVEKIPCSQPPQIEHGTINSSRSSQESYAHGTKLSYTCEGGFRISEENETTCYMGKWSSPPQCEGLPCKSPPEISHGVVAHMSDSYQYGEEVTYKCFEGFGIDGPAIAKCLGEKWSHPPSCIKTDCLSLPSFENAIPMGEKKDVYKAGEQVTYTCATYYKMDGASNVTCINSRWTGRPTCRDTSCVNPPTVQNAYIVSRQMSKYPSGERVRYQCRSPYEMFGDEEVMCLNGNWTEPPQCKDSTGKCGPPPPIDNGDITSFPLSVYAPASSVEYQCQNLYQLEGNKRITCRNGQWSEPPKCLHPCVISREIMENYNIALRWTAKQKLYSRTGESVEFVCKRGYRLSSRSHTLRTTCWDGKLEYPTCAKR
UniProt Q9NZZ3: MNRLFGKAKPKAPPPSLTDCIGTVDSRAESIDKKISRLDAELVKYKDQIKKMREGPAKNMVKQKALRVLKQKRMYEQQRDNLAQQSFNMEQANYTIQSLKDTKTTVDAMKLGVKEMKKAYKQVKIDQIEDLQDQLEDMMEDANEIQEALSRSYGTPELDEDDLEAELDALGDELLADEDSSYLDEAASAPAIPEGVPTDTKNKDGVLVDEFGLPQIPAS
UniProt O75956: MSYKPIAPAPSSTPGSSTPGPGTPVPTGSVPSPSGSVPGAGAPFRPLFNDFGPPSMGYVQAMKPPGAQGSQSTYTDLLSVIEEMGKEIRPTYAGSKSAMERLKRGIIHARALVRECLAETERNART
UniProt P41208: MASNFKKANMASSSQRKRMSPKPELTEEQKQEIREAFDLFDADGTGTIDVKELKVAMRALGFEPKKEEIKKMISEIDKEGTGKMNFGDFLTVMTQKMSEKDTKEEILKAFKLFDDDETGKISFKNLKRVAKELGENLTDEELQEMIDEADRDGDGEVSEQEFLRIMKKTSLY
UniProt Q9NYV4, whole entry, looked up: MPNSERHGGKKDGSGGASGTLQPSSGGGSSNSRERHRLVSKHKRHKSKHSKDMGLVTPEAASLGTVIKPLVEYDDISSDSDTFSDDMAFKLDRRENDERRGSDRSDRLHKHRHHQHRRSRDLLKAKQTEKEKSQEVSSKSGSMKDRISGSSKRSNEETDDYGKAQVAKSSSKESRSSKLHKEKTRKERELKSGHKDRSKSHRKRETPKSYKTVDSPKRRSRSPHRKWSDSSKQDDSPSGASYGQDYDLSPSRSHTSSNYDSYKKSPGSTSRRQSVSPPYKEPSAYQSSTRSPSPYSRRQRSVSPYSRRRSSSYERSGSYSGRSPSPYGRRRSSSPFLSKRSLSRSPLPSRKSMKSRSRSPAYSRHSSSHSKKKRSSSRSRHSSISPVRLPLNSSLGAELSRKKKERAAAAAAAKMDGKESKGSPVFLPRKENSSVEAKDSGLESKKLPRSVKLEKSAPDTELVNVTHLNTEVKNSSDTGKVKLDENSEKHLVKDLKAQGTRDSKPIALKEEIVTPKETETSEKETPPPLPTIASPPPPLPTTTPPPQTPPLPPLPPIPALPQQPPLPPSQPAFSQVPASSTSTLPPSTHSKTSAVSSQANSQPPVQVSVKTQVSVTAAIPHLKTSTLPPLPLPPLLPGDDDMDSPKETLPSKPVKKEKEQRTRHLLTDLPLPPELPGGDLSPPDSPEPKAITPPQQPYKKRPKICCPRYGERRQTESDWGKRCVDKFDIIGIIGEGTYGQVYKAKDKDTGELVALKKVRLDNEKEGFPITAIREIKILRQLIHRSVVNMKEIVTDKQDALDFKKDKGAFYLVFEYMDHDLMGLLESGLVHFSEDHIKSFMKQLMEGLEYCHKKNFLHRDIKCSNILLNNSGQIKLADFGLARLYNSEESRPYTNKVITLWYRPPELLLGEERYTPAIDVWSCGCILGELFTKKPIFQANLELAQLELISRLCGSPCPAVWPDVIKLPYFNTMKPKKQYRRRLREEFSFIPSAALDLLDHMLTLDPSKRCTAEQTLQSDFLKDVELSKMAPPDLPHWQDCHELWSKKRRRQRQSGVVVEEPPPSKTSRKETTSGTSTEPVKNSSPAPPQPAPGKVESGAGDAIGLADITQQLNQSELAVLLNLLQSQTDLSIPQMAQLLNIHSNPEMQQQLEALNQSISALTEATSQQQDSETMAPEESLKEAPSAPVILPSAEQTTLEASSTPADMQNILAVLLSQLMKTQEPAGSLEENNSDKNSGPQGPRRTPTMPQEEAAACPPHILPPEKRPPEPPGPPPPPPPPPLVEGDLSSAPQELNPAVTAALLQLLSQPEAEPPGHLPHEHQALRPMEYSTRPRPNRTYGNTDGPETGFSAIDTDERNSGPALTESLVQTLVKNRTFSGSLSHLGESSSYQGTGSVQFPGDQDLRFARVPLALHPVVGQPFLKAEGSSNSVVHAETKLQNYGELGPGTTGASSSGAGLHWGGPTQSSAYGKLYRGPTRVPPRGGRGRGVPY
UniProt Q96CF2: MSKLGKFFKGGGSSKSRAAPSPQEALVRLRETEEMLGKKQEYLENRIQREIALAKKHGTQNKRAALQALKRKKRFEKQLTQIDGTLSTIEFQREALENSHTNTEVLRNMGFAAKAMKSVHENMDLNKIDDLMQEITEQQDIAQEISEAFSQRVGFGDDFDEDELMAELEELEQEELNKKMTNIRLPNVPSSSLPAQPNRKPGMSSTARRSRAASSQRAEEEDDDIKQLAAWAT
UniProt O14519: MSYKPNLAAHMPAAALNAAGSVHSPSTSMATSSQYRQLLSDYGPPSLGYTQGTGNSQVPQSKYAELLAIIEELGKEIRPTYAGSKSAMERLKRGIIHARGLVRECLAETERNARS
UniProt Q9H444: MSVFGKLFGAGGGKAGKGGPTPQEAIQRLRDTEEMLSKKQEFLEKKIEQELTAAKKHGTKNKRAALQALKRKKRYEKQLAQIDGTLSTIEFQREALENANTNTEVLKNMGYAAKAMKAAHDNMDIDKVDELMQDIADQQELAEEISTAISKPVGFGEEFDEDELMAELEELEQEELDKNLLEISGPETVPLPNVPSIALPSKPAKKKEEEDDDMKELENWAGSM
UniProt P06493, whole entry, looked up: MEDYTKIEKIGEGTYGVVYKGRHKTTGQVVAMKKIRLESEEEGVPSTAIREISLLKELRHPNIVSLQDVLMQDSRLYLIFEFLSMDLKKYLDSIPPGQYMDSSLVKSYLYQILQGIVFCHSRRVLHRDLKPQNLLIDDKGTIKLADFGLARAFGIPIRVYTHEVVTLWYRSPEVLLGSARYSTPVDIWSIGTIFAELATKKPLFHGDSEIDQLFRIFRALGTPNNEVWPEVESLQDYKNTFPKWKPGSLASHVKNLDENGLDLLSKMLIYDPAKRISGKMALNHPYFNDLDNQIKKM
UniProt O00748: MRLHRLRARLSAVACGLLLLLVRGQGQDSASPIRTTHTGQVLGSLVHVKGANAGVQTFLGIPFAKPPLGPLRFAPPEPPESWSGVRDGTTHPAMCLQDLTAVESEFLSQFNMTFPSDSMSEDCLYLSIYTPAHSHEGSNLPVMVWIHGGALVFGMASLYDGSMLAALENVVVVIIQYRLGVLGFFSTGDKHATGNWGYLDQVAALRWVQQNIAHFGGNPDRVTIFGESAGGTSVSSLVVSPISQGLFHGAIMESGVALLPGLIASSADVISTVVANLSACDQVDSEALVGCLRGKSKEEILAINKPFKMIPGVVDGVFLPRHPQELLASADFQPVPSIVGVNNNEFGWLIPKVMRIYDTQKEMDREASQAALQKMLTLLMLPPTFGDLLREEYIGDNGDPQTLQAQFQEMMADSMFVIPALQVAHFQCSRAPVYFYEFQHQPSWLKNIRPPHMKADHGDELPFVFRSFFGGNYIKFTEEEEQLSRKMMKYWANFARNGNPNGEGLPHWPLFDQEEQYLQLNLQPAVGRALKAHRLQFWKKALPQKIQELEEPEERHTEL
UniProt Q9Y259: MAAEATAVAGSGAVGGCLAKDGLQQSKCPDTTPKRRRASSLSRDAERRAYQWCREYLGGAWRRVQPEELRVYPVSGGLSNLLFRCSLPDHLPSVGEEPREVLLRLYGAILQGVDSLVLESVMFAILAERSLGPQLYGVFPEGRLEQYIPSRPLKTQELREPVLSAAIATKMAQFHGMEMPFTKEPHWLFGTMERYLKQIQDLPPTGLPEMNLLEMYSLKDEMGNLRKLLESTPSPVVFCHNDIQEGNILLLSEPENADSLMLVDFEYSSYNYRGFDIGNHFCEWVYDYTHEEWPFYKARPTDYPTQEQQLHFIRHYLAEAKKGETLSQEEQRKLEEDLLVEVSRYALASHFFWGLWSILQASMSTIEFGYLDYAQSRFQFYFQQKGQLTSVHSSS
UniProt P17676: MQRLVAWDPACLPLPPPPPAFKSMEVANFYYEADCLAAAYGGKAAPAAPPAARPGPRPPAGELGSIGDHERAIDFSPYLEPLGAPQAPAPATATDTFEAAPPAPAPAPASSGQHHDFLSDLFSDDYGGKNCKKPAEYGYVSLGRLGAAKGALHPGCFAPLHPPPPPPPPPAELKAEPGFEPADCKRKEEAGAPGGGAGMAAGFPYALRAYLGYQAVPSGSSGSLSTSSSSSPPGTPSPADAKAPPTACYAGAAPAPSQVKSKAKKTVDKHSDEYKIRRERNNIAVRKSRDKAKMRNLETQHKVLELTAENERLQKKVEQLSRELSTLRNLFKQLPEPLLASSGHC
UniProt Q13112, whole entry, looked up: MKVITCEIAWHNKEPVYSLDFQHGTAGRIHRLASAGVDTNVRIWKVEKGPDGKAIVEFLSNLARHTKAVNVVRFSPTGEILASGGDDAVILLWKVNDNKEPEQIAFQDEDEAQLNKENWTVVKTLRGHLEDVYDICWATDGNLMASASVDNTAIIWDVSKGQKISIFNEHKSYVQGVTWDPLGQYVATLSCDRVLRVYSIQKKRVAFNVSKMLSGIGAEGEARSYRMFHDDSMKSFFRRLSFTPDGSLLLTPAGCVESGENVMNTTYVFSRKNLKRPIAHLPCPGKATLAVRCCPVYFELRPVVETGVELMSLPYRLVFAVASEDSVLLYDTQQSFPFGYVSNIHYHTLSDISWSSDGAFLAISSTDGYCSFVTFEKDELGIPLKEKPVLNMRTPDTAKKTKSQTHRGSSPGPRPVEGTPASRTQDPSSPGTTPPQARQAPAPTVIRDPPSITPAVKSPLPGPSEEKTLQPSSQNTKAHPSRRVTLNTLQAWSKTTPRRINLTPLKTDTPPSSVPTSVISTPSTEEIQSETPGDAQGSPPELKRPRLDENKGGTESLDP
UniProt O43633: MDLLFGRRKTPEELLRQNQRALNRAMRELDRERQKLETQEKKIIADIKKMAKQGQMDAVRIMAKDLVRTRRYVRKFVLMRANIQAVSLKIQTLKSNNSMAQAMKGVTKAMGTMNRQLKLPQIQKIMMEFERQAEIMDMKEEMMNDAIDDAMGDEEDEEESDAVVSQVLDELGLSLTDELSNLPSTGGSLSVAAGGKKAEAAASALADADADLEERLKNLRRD

Columns and labels:
Assay in all cases: log2 fold change, soluble protein after heating vs DMSO (PISA); higher = thermal stabilisation; K562 cells, 10 uM, 30 min; active = over 0.2 and 3.5 SD of the protein, either way, in both replicates (recomputed)
[1] = compound: C#Cc1cccc(Nc2ncnc3cc(OCCOC)c(OCCOC)cc23)c1 [erlotinib]
Method in brief: (§1)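 K562 cells at 2×10^6 cells/mL were given 10 μM compound for 30 min. Aliquots then went through 3 min of heating across 48°C-58°C, were pooled, and were extracted in PBS with 0.5% NP-40 at 4°C, and the supernatant after 21,000xg for 90 min was quantified by TMTpro 16plex LC-MS/MS with channel sums equalised. Thermal stability relative to control samples, from duplicates, is given as log2 fold change.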

[2] = compound: C/C(=N\NC(=O)C1=CC(=CC=C1)S(=O)(=O)N2CCOCC2)/C3=C(C=CC(=C3)Cl)O
Method in brief: as §1

[3] = compound: C1=CC(=C(C=C1Cl)C2=NC3=NC=CN=C3C(=N2)NC4=CC=NC=C4)F
Method in brief: as §1

[4] = compound: C1=CC(=CC=C1C2=NC3=C(N2)C=C(C=C3)C(=O)N)OC4=CC=C(C=C4)Cl
Method in brief: as §1

[5] = compound: C1=CC2=C(C=CC(=C2)/C=C\3/C(=O)NC(=NCC4=CC=CS4)S3)N=C1
Method in brief: as §1

[6] = compound: C1=CC2=NC=CN=C2C=C1/C=C/3\C(=O)NC(=O)S3
Method in brief: as §1

[7] = compound: C1=CC=C(C=C1)C2=NC(=C(N2)C3=CC=NC=C3)C4=CC(=C(C=C4)Cl)O
Method in brief: as §1

[8] = compound: C1=CC=C2C(=C1)C3=NNC4=CC=CC(=C43)C2=O
Method in brief: as §1

[9] = compound: C1CCN(C1)C(=O)NC2=CC=CC(=C2)NC3=NC=C(C(=N3)NCCC4=CN=CN4)Br
Method in brief: as §1

[10] = compound: C1CN(CCC1(CC2=CC=C(C=C2)Cl)N)C3=NC=NC4=C3C=CN4
Method in brief: as §1

Target | log2 fold change [1] | log2 fold change [2] | log2 fold change [3] | log2 fold change [4] | log2 fold change [5] | log2 fold change [6] | log2 fold change [7] | log2 fold change [8] | log2 fold change [9] | log2 fold change [10]
CDC42SE1 (UniProt Q9NRR8) | inactive: 0.078 | inactive: 0.041 | inactive: -0.005 | inactive: 0.014 | inactive: 0.021 | inactive: 0 | inactive: -0.009 | inactive: -0.207 | inactive: 0.023 | inactive: -0.012
CHAF1A (UniProt Q13111) | inactive: -0.046 | inactive: -0.014 | inactive: -0.121 | inactive: 0.053 | inactive: 0.027 | inactive: 0.135 | inactive: -0.047 | inactive: -0.114 |  | 
CDIPT (UniProt O14735) | inactive: -0.008 | inactive: 0.014 | inactive: 0.15 | inactive: 0.008 | inactive: 0.006 | inactive: 0.106 | inactive: 0.002 | inactive: 0.049 | inactive: 0.013 | inactive: 0.001
CERS2 (UniProt Q96G23) | inactive: 0.032 | inactive: 0.001 | inactive: 0.013 | inactive: 0.007 | inactive: 0.004 | inactive: 0.033 | inactive: 0.01 | inactive: -0.025 | inactive: 0.074 | inactive: 0.087
CDK4 (UniProt P11802) | inactive: 0.075 | inactive: -0.244 | inactive: -0.008 | inactive: -0.086 | inactive: 0.329 | inactive: 0.11 | inactive: -0.067 | inactive: 0.032 |  | 
CFH (UniProt P08603) | inactive: -0.08 | inactive: -0.081 | inactive: 0 | inactive: 0.236 | inactive: 0.044 | inactive: 0.056 | inactive: -0.017 | inactive: -0.035 | inactive: -0.02 | inactive: 0.084
CHMP5 (UniProt Q9NZZ3) | inactive: 0.018 | inactive: -0.079 | inactive: -0.011 | inactive: 0 | inactive: -0.008 | inactive: 0.011 | inactive: -0.035 | inactive: -0.023 | inactive: 0.023 | inactive: 0.025
CDK2AP2 (UniProt O75956) | inactive: -0.142 | inactive: -0.007 | inactive: 0.037 | inactive: 0.043 | inactive: 0.063 | inactive: 0.103 | inactive: 0.007 | inactive: 0 |  | 
CDC42BPB (UniProt Q9Y5S2) | inactive: -0.005 | inactive: 0.221 | inactive: -0.071 | inactive: 0.069 | inactive: -0.047 | inactive: 0.027 | inactive: -0.024 | inactive: 0.04 | inactive: 0.017 | inactive: -0.221
CHD4 isoform 2 (UniProt Q14839) | inactive: 0.042 | inactive: 0.103 | inactive: -0.011 | inactive: -0.007 | inactive: 0.029 | inactive: 0.034 | inactive: 0.044 | inactive: -0.08 | inactive: -0.047 | inactive: -0.1
CENPF (UniProt P49454) | inactive: -0.058 | inactive: -0.019 | inactive: -0.107 | inactive: 0.018 | inactive: -0.089 | inactive: 0.035 | inactive: -0.061 | inactive: -0.048 | inactive: -0.083 | inactive: -0.035
CETN2 (UniProt P41208) | inactive: 0.121 | inactive: -0.015 | inactive: -0.002 | inactive: 0.017 | inactive: -0.058 | inactive: 0.03 | inactive: -0.058 | inactive: -0.113 | inactive: 0.039 | inactive: 0.049
CENPH (UniProt Q9H3R5) | inactive: 0.075 | inactive: 0.022 | inactive: -0.126 | inactive: 0.036 | inactive: 0.068 | inactive: 0.08 | inactive: -0.068 | inactive: 0.009 | inactive: 0.013 | inactive: -0.126
CDK12 (UniProt Q9NYV4) | inactive: -0.049 | inactive: 0.001 | inactive: -0.44 | inactive: 0.076 | inactive: -0.06 | inactive: -0.053 | inactive: -0.066 | inactive: -0.23 | inactive: -0.077 | inactive: -0.187
CDCP1 (UniProt Q9H5V8) | inactive: 0.045 | inactive: -0.011 | inactive: 0.002 | inactive: 0.031 | inactive: 0 | inactive: 0.002 | inactive: -0.035 | inactive: -0.076 | inactive: -0.042 | inactive: 0.106
CHMP4C (UniProt Q96CF2) | inactive: 0.036 | inactive: 0.06 | active: 0.476 | inactive: -0.025 | inactive: 0.054 | inactive: 0.134 | inactive: -0.064 | inactive: -0.043 | inactive: 0.058 | inactive: 0.034

Limited to log2 fold change [9], log2 fold change [3] and log2 fold change [10] (two entries from above):
Target,log2 fold change [9],log2 fold change [3],log2 fold change [10]
CERS2 (UniProt Q96G23),inactive: 0.074,inactive: 0.013,inactive: 0.087
CDK4 (UniProt P11802),,inactive: -0.008,

Further records:

Target | log2 fold change [1] | log2 fold change [2] | log2 fold change [3] | log2 fold change [4] | log2 fold change [5] | log2 fold change [6] | log2 fold change [7] | log2 fold change [8] | log2 fold change [9] | log2 fold change [10]
CDK2AP1 (UniProt O14519) | inactive: 0.094 | inactive: 0.084 | inactive: 0.078 | inactive: 0.014 | inactive: -0.054 | inactive: 0.16 | inactive: -0.093 | inactive: 0.042 |  | 
CDK5RAP1 (UniProt Q96SZ6) | inactive: 0.076 | active: -0.555 | inactive: 0.046 | inactive: -0.025 | inactive: 0.134 | inactive: -0.03 | inactive: 0.069 | inactive: 0.078 | inactive: 0.072 | inactive: -0.029
CHMP4B (UniProt Q9H444) | inactive: 0.018 | inactive: -0.006 | inactive: 0.024 | inactive: 0.013 | inactive: -0.014 | inactive: 0.057 | inactive: 0.043 | inactive: -0.001 | inactive: 0.083 | inactive: 0.035
CDK1 (UniProt P06493) | inactive: 0.045 | inactive: 0.06 | inactive: 0.021 | inactive: 0.003 | inactive: -0.054 | inactive: 0.018 | inactive: 0.003 | inactive: -0.003 | inactive: 0.007 | inactive: -0.009
CHERP (UniProt Q8IWX8) | inactive: 0.083 | inactive: 0.065 | inactive: 0.014 | inactive: 0.053 | inactive: -0.03 | inactive: 0.09 | inactive: 0.026 | inactive: -0.036 | inactive: -0.084 | inactive: -0.113
CDKN1B (UniProt P46527) | inactive: -0.076 | inactive: 0.027 | inactive: -0.133 | inactive: 0.064 | inactive: -0.217 | inactive: -0.049 | inactive: -0.1 | inactive: -0.01 |  | 
CES2 isoform 4 (UniProt O00748) | inactive: -0.05 | inactive: -0.16 | inactive: -0.264 | inactive: -0.008 | inactive: -0.06 | inactive: -0.011 | inactive: 0.139 | inactive: 0.083 | inactive: 0.061 | inactive: -0.087
CHIC2 (UniProt Q9UKJ5) | inactive: -0.026 | inactive: -0.019 | inactive: -0.005 | inactive: -0.021 | inactive: 0.063 | inactive: 0.163 | inactive: -0.007 | inactive: 0.033 |  | 
CHKB (UniProt Q9Y259) | inactive: 0 | inactive: 0.109 | inactive: 0.144 | inactive: 0.002 | inactive: 0.041 | inactive: 0.009 | inactive: -0.034 | inactive: -0.044 | inactive: -0.122 | inactive: 0.07
CEBPB (UniProt P17676) | inactive: -0.087 | inactive: -0.072 | inactive: -0.156 | inactive: 0.052 | inactive: -0.009 | inactive: 0.037 | inactive: -0.08 | inactive: 0.005 | inactive: 0.015 | inactive: -0.024
CFDP1 (UniProt Q9UEE9) | inactive: 0.011 | inactive: 0.012 | inactive: 0.044 | inactive: -0.017 | inactive: 0.018 | inactive: 0.019 | inactive: -0.061 | inactive: -0.005 | inactive: 0.016 | inactive: 0.047
CHCHD6 (UniProt Q9BRQ6) | inactive: 0.146 | inactive: 0.129 | inactive: 0.142 | inactive: 0 | inactive: 0.278 | inactive: -0.123 | inactive: 0.129 | inactive: -0.127 | inactive: 0.089 | inactive: 0.094
CHAF1B (UniProt Q13112) | inactive: -0.014 | inactive: -0.003 | inactive: -0.009 | inactive: 0.022 | inactive: 0.042 | inactive: 0.009 | inactive: -0.032 | inactive: -0.024 | inactive: 0.017 | inactive: 0.041
CHMP4A isoform 2 (UniProt Q9BY43) | inactive: 0.024 | inactive: -0.08 | inactive: 0.067 | inactive: -0.009 | inactive: 0.039 | inactive: 0.051 | inactive: -0.041 | inactive: -0.053 | inactive: 0.061 | inactive: 0.021
CHMP2A (UniProt O43633) | inactive: 0.008 | inactive: 0.03 | inactive: 0.035 | inactive: 0.009 | inactive: -0.011 | inactive: 0.016 | inactive: -0.05 | inactive: 0.006 | inactive: -0.028 | inactive: 0.025
